Assay results taken from PubChem BioAssay AID2417 (National Center for Advancing Translational Sciences (NCATS), 2010).
About 4,300 (3.1%) of roughly 140,000 compounds were called active. The inconclusive results got no clear call from the source; some entries with a clear call stand among them for comparison.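 How the source made its calls: active means readout at or below -70, meaning at least 70% loss of cells showing the perinucleolar compartment, a nuclear body marking cancer cells; inconclusive means readout between -30 and a set limit; inactive means the rest.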

assay: High Content Assay for Compounds that inhibit the Assembly of the Perinucleolar Compartment; conditions: PC3M PTB-GFP, PNC prevalence imaging, 16 h; at 10 µM; active compounds read low;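 further: plate controls were DMSO wells for no effect and camptothecin positive control wells for full effect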
Method in brief: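 Compounds are pinned in duplicate onto adhered PC3M cells stably expressing GFP-tagged PTB and incubated 16 h at 37 C. Cells are then fixed, nuclei stained with Hoechst, and PNC-positive cells counted.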

SMILES	activity change (PNC), negative = inhibition
Cc1c(Br)c([N+](=O)[O-])nn1C(C)C(=O)N1CCCc2ccccc21 (stereo not drawn)	inactive: 30.4%
COc1ccccc1NS(=O)(=O)c1ccc(NN=C2CCCCC2)c([N+](=O)[O-])c1	inactive: -10.1%
COc1ccc(/C=N/NC(=O)COc2ccc(Cl)cc2Cl)cc1Cn1nc(C)cc1C	inconclusive: -42.1%
Cc1cc(C)c(C)c(S(=O)(=O)NCc2ccc(C(=O)N3CCCCC3)cc2)c1C	inactive: 57.5%
CN1C2CCC1CC(OC(=O)c1c[nH]c3ccccc13)C2 (stereo not drawn)	active: -89%
CCNC(=S)N(Cc1cc2cc(C)cc(C)c2[nH]c1=O)C1CCCC1	inconclusive: -31.9%
O=C(CCc1nc(-c2ccccc2F)no1)Nc1ccc(Oc2ccccc2)cc1	inconclusive: -33.9%
O=C(C1CCCN(S(=O)(=O)Cc2ccccc2)C1)N1CCCCC1 (stereo not drawn)	inconclusive: -53.2%
CCC(C)/C(C)=N/NC(=O)c1ccc(COc2ccc(Cl)c(C)c2)cc1 (stereo not drawn)	active: -134%
COc1ccc(/C=N/n2c(-c3ccco3)nc3ccccc3c2=O)cc1	active: -100%
CC(C)(C)c1ccccc1NC(=O)Cn1c(=O)cnc2ccccc21	inconclusive: -41.3%
CC(=O)NNc1cccc(Cl)n1	inactive: -27.7%
Cc1ccc(C(=O)C(NC(=O)c2ccco2)N2CCOCC2)cc1 (stereo not drawn)	inconclusive: -63.1%
COc1cc(OC)cc(-n2nnnc2SCC(=O)N2CCCC2)c1	inconclusive: -54.6%
Cc1noc(/C=C/c2ccco2)c1S(=O)(=O)N1CCC(C(=O)N2CCc3ccccc32)CC1	inconclusive: -35.1%
Cc1ccc(N2C(=O)C(Cl)=C(N3CCN(C)CC3)C2=O)c(C)c1	inconclusive: -33%
O=C(Nc1ccc(Cl)c(Cl)c1)Nc1nc(-c2ccccc2)cs1	inactive: -5.02%
N#Cc1nc(COc2ccccc2F)oc1NCCc1ccccc1	inconclusive: -48.4%
O=C(Nc1ccc(N2CCCC2=O)cc1)c1cccc(F)c1	inconclusive: -32.1%
O=C(c1ccc(Br)s1)N1CCCC1	inconclusive: -39.6%

SMILES	activity change (PNC), negative = inhibition
COC(=O)c1ccc(/C=N/OCC(=O)NC2CCCCCCC2)cc1	inactive: 46.3%
CC(C)Cn1c(SC(C)C(=O)Nc2ccc(N3CCOCC3)cc2)nc2ccccc21 (stereo not drawn)	inconclusive: -59.7%
CCOC(=O)C(Sc1ncn[nH]1)c1ccccc1 (stereo not drawn)	inconclusive: -38.2%
COc1ccc(N2C(=O)CC(Sc3nnc(-c4ccccc4)o3)C2=O)cc1 (stereo not drawn)	inconclusive: -42.1%
COc1ccc(C)cc1NC(=O)c1cnc2sccn2c1=O	inconclusive: -43.9%
CCOc1ccc(N2C(=O)C3Sc4[nH]c(=O)sc4C(/C=C/c4ccccc4)C3C2=O)cc1 (stereo not drawn)	inactive: 13.2%
CCCCSc1nnc(-c2ccccc2)c2ccccc12	inconclusive: -48.6%
CC1CCN(c2nncc3ccccc23)CC1	active: -93.3%
CSc1c(CC(=O)Nc2ccc(F)cc2)n(Cc2ccccc2)c2ccccc12	inactive: 20.8%
CCN1C(=O)/C(=C2/C=CC=CN2C)SC1=S	inactive: -18.5%
O=C(CCn1nnc2ccccc2c1=O)N[C@@H](Cc1ccccc1)C(=O)O	inconclusive: -65.9%
CCCc1cc(C(N)=O)c(NC(=O)c2ccoc2C)s1	inactive: -5.3%
COc1ccc(OC)c(C(C(=O)NCc2ccco2)N(C(=O)Cn2nnc3ccccc32)C(C)C)c1 (stereo not drawn)	inconclusive: -68.6%
O=C(CNC(=O)c1ccc(Oc2ccccc2)cc1)OCc1ccc(Br)cc1	inactive: 22.8%
Cc1c(Cl)cccc1NC(=O)CSc1nc2c(c(=O)[nH]1)CCCC2	inactive: 4.65%
Cc1ccc(/C(N)=N/OC(=O)C23CC4CC(CC(C4)C2)C3)cc1	inconclusive: -34.9%
Cc1ccc(-c2n[nH]c(=S)n2/N=C/c2ccc(C)s2)cc1	inactive: 6.94%
COc1ccccc1NC(=O)C(C)NS(=O)(=O)c1ccc(Cl)cc1 (stereo not drawn)	inconclusive: -30.8%
CCCCC(=O)N(c1ccc(OC)cc1)C1C=CS(=O)(=O)C1 (stereo not drawn)	inconclusive: -43.6%
CCN1CCN(C(c2cc(OC)c(OC)c(OC)c2)c2nnnn2C(C)C)CC1 (stereo not drawn)	inconclusive: -50.6%

Another view of 2 compounds above.
SMILES | activity change (PNC), negative = inhibition
CCC(C)/C(C)=N/NC(=O)c1ccc(COc2ccc(Cl)c(C)c2)cc1 (stereo not drawn) | active: -134%
COc1ccc(/C=N/n2c(-c3ccco3)nc3ccccc3c2=O)cc1 | active: -100%

Next part:

SMILES	activity change (PNC), negative = inhibition
COCC(C)NC(=O)Cc1ccc(F)cc1 (stereo not drawn)	inactive: 17.9%
S=C(NCCN1CCOCC1)Nc1cccc(Cl)c1	inactive: 16.4%
O=C(Nc1cccn2ncnc12)c1ccccc1	inconclusive: -36.8%
CCn1cc(C(=O)NC2CCc3ccccc32)c(=O)c2ccc(C)nc21 (stereo not drawn)	inactive: 28.3%
CC(=O)N1CCN(CCN=CC2=C(O)CC(C)(C)CC2=O)CC1	inconclusive: -49.4%
CCCc1[nH]n(-c2ccc([N+](=O)[O-])cc2)c(=O)c1C=NCCc1c[nH]c2ccccc12	inactive: 16.3%
Cc1ccccc1NC(=O)C1CCN(c2cc(-c3ccccc3)nc3ncnn23)CC1	active: -114%
CCn1c(CNC(=O)c2ccc(OC)cc2)nnc1SCC(=O)c1ccccc1	inactive: 9.6%
O=C(O)CCC(=O)Nc1nnc(C(F)(F)F)s1	inconclusive: -66.4%
CCOC(=O)CSc1nnc(NC(=O)c2cccc(S(=O)(=O)N3CCCCC3)c2)s1	inactive: 19.2%
CC1(C)CC(=O)C(/C=N/c2ncccc2C(=O)O)=C(O)C1	inactive: 3.19%
O=C(N/C(=C/c1cn(-c2ccccc2)nc1-c1ccccc1)C(=O)N1CCOCC1)c1ccccc1	inconclusive: -44.6%
CCC(=O)Nc1cccc(Br)c1	active: -116%
NC(=O)c1c(NC(=O)c2ccc(S(=O)(=O)N3CCOCC3)cc2)sc2c1CCCCC2	inconclusive: -72.3%
Cc1cccc(/C=C(\c2nc3ccccc3[nH]2)S(=O)(=O)c2ccccc2)c1	active: -81.8%
Cc1cc(C)c(C#N)c(SCCS(=O)(=O)Cc2ccccc2)n1	inactive: 32.4%
N=c1n(CCN2CCOCC2)c2ccccc2n1CC(O)COc1ccccc1 (stereo not drawn)	inconclusive: -52.2%
COc1ccc(NS(=O)(=O)c2ccc(OC)c(N(C)S(=O)(=O)c3ccc(Cl)cc3)c2)cc1	inconclusive: -62.6%
